# PubChem BioAssay AID1259425 – University of Nebraska Medical Center, 2018
# Assay: 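Seek colon cancer weak points whose silencing resembles KSR1 loss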 (primary screen)
# Cells: HCT116 human colon cancer cells
# Knock-down reagent: siRNA pool against human genes, 50 nM siRNA
# Measured: 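After 50 nM siRNA pool, branched-DNA assay measures six marker transcripts per well, minus blank, normalised to the geometric mean of two housekeeping transcripts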
# Reading the numbers: BNIP3L mRNA: higher = more BNIP3L transcript after knockdown; NDRG1 mRNA: higher = more NDRG1 transcript after knockdown; BNIP3 mRNA: higher = more BNIP3 transcript after knockdown; ALDOC mRNA: higher = more ALDOC transcript after knockdown; ACSL5 mRNA: higher = more ACSL5 transcript after knockdown
# This is one part, drawn at random, of about 14,000 reagents. No sequences are given here. Not given: the time to read-out.
gene,"BNIP3L mRNA, set 1","NDRG1 mRNA, set 1","BNIP3 mRNA, set 1","ALDOC mRNA, set 1","ACSL5 mRNA, set 1"
CCDC183 (GeneID 84960),0.116,0.129,0.227,0.0315,0.302
PLEKHG4 (GeneID 25894),0.232,1.04,0.425,0.0561,0.197
SMAD9 (GeneID 4093),0.132,0.102,0.279,0.0294,0.22
ZNF282 (GeneID 8427),0.128,0.165,0.194,0.025,0.0283
RFX4 (GeneID 5992),0.125,0.124,0.308,0.0163,0.171
ALDH18A1 (GeneID 5832),0.0575,0.0639,0.193,0.00324,0.169
ST3GAL1 (GeneID 6482),0.145,0.192,0.386,0.0381,0.312
LAMC3 (GeneID 10319),0.132,0.245,0.194,0.0213,0.136
ATL3 (GeneID 25923),0.0568,0.323,0.786,0.0225,0.209
RNF25 (GeneID 64320),0.0705,0.231,0.465,0.0157,0.289
ALG8 (GeneID 79053),0.126,0.188,0.321,0.0529,0.106
TMEM121 (GeneID 80757),0.0812,0.179,0.235,0.0109,0.148
H2AP (GeneID 25763),0.123,0.248,0.431,0.0209,0.14
ZNF71 (GeneID 58491),0.0947,0.143,0.361,0.0653,0.121
STRA6 (GeneID 64220),0.09,0.0572,0.267,0.0175,0.0998
ZBTB48 (GeneID 3104),0.13,0.157,0.459,0.0218,0.167
SLC39A10 (GeneID 57181),0.131,0.141,0.295,0.0198,0.291
ZBED8 (GeneID 63920),0.0643,0.21,0.19,0.0354,0.243
EIF2A (GeneID 83939),0.259,0.375,0.358,0.0861,0.32
CKS2 (GeneID 1164),0.159,0.158,0.393,0.0122,0.174
ZFP36L1 (GeneID 677),0.172,0.195,0.302,0.000176,0.257
SLC22A2 (GeneID 6582),0.112,0.263,0.392,0.0407,0.217
KCNT1 (GeneID 57582),0.121,0.128,0.325,0.0337,0.279
KIFC1 (GeneID 3833),0.0352,0.143,0.25,0.00555,0.134
DDX49 (GeneID 54555),0.148,0.29,0.451,0.0147,0.102
FAM222A (GeneID 84915),0.174,0.343,0.204,0.045,0.192
PAM (GeneID 5066),0.13,0.135,0.298,0.0299,0.198
INE1 (GeneID 8552),0.108,0.184,0.308,0.031,0.128
CRYGC (GeneID 1420),0.114,0.151,0.213,0.023,0.122
CP (GeneID 1356),0.137,0.247,0.301,0.0594,0.221
MIGA2 (GeneID 84895),0.0405,0.389,0.338,0.046,0.19
KIF5B (GeneID 3799),0.065,0.28,0.279,0.0203,0.271
SHANK2 (GeneID 22941),0.234,0.262,0.196,0.0356,0.326
PDSS2 (GeneID 57107),0.0775,0.121,0.211,0.0154,0.135
NR0B1 (GeneID 190),0.064,0.0835,0.297,0.0224,0.0861
OR1C1 (GeneID 26188),0.119,0.119,0.338,0.0615,0.149
EIF5A2 (GeneID 56648),0.107,0.137,0.336,0.0289,0.357
ULK1 (GeneID 8408),0.0954,0.0899,0.28,0.018,0.247
CLSTN3 (GeneID 9746),0.0842,0.229,0.289,0.0366,0.237
FNDC3A (GeneID 22862),0.15,0.142,0.363,0.0254,0.0839
CDKAL1 (GeneID 54901),0.1,0.462,0.64,0.0327,0.139
IL17RC (GeneID 84818),0.156,0.151,0.219,0.0546,0.0817
USP22 (GeneID 23326),0.106,0.407,0.213,0.0202,0.281
ATP5ME (GeneID 521),0.0957,0.259,0.31,0.0103,0.0913
SAG (GeneID 6295),0.134,0.078,0.383,0.0202,0.239
BIRC5 (GeneID 332),0.122,0.166,0.421,0.0121,0.318
ZNF8 (GeneID 7554),0.0371,0.132,0.223,0.0072,0.177
CHTOP (GeneID 26097),0.091,0.232,0.383,0.0456,0.158
RBFOX1 (GeneID 54715),0.192,0.1,0.256,0.0668,0.149
CARD18 (GeneID 59082),0.115,0.128,0.27,0.0215,0.169
COL3A1 (GeneID 1281),0.0793,0.257,0.427,0.0383,0.179
MMP12 (GeneID 4321),0.0497,0.492,0.329,0.0361,0.323
NMB (GeneID 4828),0.0916,0.213,0.364,0.0222,0.297
VOPP1 (GeneID 81552),0.0669,0.335,0.459,0.0842,0.419
RFPL2 (GeneID 10739),0.084,0.365,0.192,0.0191,0.346
GLRB (GeneID 2743),0.0494,0.0815,0.171,0.0293,0.0849
GRN (GeneID 2896),0.0924,0.268,0.225,0.0566,0.083
SPATA31C2 (GeneID 645961),0.145,0.787,0.511,0.0253,0.225
NME2 (GeneID 4831),0.059,0.14,0.339,0.00167,0.112
ABCB6 (GeneID 10058),0.142,0.606,0.324,0.0198,0.246
CENPB (GeneID 1059),0.144,0.159,0.308,0.0183,0.11
SCN2B (GeneID 6327),0.21,0.766,0.379,0.0492,0.139
SPDEF (GeneID 25803),0.249,0.31,0.58,0.037,0.299

Limited to “ACSL5 mRNA, set 1”, for 11 of the entries above:
DDX49 (GeneID 54555) = 0.102
FAM222A (GeneID 84915) = 0.192
PAM (GeneID 5066) = 0.198
INE1 (GeneID 8552) = 0.128
CRYGC (GeneID 1420) = 0.122
CP (GeneID 1356) = 0.221
MIGA2 (GeneID 84895) = 0.19
KIF5B (GeneID 3799) = 0.271
SHANK2 (GeneID 22941) = 0.326
PDSS2 (GeneID 57107) = 0.135
NR0B1 (GeneID 190) = 0.0861
